Reference: publication PMC10247384
Results are given in words; binding and its absence hold for the method and conditions named. In cells and extracts the contact can be indirect. Some binding calls cover weakened binding; strength is not graded here. For some assays here: Where a sequence is shown, tags or fusion partners need not be part of it.

Protein sequences, listed by entry. Tags and fused reporters are not part of them.
UniProt Q9H6L5: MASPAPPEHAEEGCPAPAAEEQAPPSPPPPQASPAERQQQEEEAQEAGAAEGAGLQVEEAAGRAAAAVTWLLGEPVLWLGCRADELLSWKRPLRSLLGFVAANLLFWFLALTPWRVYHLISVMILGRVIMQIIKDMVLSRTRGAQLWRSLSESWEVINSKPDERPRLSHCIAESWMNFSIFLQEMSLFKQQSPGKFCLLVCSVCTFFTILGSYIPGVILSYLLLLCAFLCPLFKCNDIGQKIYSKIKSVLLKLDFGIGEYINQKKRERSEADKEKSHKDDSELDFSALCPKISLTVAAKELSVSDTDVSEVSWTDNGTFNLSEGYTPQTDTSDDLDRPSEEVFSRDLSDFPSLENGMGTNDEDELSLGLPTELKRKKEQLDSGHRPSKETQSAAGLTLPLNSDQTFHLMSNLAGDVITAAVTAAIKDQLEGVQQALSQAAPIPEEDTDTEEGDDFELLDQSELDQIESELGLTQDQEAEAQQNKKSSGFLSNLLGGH
UniProt Q9JKW0: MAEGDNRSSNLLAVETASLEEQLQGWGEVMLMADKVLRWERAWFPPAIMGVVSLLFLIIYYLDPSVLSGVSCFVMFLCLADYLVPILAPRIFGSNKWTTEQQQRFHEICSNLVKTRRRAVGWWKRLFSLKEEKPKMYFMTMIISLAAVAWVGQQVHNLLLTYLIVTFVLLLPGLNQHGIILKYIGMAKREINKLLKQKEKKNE

Legend:
[1] = molecular target: FAM134B N-terminally tagged with the V1 or V2 fragment of the Venus protein (UniProt Q9H6L5); experiment: split reporter; Venus fluorescence from V1- and V2-tagged proteins in transiently expressing U2OS cells (WT or ARL6IP1 KO)
[2] = molecular target: green fluorescent protein (GFP)-tagged FAM134B (UniProt Q9H6L5); experiment: co-IP; HEK293T cells transfected with Myc-ARL6IP1 and tagged FAM134 family members or GFP-tagged FAM134B deletion constructs; immunoblot
tagged FAM134A = molecular target: T1, tagged FAM134A (UniProt Q8NC44); experiment: as above
T1 sequence: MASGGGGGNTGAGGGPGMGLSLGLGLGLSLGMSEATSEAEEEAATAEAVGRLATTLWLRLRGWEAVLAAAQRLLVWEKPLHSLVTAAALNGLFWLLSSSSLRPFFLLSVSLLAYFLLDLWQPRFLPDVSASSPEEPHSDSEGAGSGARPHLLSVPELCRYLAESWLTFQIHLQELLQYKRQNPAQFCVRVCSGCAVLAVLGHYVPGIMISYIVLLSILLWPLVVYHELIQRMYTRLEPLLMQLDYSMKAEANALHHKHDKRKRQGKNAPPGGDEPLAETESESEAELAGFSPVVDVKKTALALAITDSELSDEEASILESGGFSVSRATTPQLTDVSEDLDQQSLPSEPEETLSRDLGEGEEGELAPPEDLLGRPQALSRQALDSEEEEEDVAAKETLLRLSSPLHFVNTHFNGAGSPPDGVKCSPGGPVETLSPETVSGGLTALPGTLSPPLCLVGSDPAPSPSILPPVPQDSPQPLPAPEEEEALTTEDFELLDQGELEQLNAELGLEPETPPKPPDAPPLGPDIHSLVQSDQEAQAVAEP

HA–FAM134B = HA–FAM134B (UniProt Q9H6L5); experiment: co-IP; HEK293T cells transfected with HA-tagged ARL6IP1 or FAM134B constructs; WT and variant proteins pulled down, the endogenous binding partner detected by immunoblot
[3] = molecular target: haemagglutinin (HA)-tagged ARL6IP1 (UniProt Q15041); experiment: co-IP; doxycycline induced HA-ARL6IP1 in U2OS cells; endogenous FAM134B detected
[4] = molecular target: haemagglutinin (HA)-tagged ARL6IP1 (UniProt Q15041); experiment: co-IP; HA-tagged ARL6IP1 precipitated; Western blot for RTN4 and FAM134B; cells not given
[5] = molecular target: endogenous ARL6IP1 (human cells) (human (endogenous in HEK293T and U2OS)) (UniProt Q15041); experiment: co-IP; endogenous proteins from MEFs and HEK293T cells; for MEFs cleared lysates with the ARL6IP1 primary antibody at 4 °C overnight, protein A agarose beads 4 h; immunoblot
[6] = molecular target: green fluorescent protein (GFP)-tagged FAM134B (UniProt Q9H6L5); experiment: co-IP; transiently expressed HA–ARL6IP1 or HA–ARL6IP1-7KR with GFP–FAM134B; in Fig. 4h with co-expressed AMFR–Flag or AMFR-RINGmut–Flag; immunoblot
[7] = molecular target: endogenous ARL6IP1 (MEFs) (mouse (endogenous in MEFs)) (UniProt Q9JKW0); experiment: proximity ligation; Duolink in situ kit on PFA-fixed, permeabilised WT MEFs with rabbit anti-FAM134B-Plus and rabbit anti-ARL6IP1-Minus; the respective KO MEFs as specificity control
[8] = molecular target: endogenous ARL6IP1 (MEFs) (mouse (endogenous in MEFs)) (UniProt Q9JKW0); experiment: co-IP; endogenous proteins from MEFs and HEK293T cells; for MEFs cleared lysates with the ARL6IP1 primary antibody at 4 °C overnight, protein A agarose beads 4 h; immunoblot
[9] = molecular target: ARL6IP1 N-terminally tagged with the V1 or V2 fragment of the Venus protein (UniProt Q15041); experiment: split reporter; Venus fluorescence from V1- and V2-tagged proteins in transiently expressing U2OS cells (WT or ARL6IP1 KO)

Molecule: ARL6IP1 N-terminally tagged with the V1 or V2 fragment of the Venus protein (from UniProt Q15041 1-203)
- binding [1]: binds

Molecule: Myc-ARL6IP1 (from UniProt Q15041 1-203)
- binding [2]: binds
- binding (tagged FAM134A): binds

Molecule: endogenous ARL6IP1 (human cells) (from UniProt Q15041-1 1-203)
- binding (HA–FAM134B): binds

Molecule: endogenous FAM134B (human cells) (from UniProt Q9H6L5 1-497)
- binding [3]: binds
- binding [4]: binds
- binding [5]: binds

Molecule: haemagglutinin (HA)-tagged ARL6IP1 (from UniProt Q15041 1-203)
- binding [6]: binds

B1: endogenous FAM134B (MEFs) (protein, UniProt Q8VE91 1-480)
chain: MASPAPEEHATQGCPATEEQPPRPGVPGEEAGPEGAGPQVEEAAGRVAAALTWLLGEPVLWLGWRADELLSWKRPLRSLLTFLGANLLFWFLALTPWRVYHLISVMILGRVIMQIIKEMVLSRTRGAQLWRSLTESWEVINSKPDERARLSQCIAESWMNFSMFLQEMSLFKQQSPGKFCLLVCSVCTFFTILGSYIPGVILSYLLLLFAFLCPLFKCNDIGQKIYSKVKSILLKLDFGIGEYINQKKRERSEADKEKSHKDDSELDFSALCPKISLTVAAKELSVSDTDVSEVSWTDNGTFNLSEGYTPQTDTSDDLDRPSEEVFSRDLSDFPSLENGTGTNDEDELSLGLPTELKRKKQQLDSAHRPSKERQSAAGLSLPLKSDQALHLMSNLAGDVITAAMTAAIKDQLEGARQALTQVAPTAGEDTDTEEGDDFELLDQAELDQIESELGLTQDQGAEAQQSKKSSGFLSNLLGGH
- binding [7]: binds
- binding [8]: binds

B2: V1-CCPG1 (protein, UniProt Q9ULG6 1-757)
chain: MSENSSDSDSSCGWTVISHEGSDIEMLNSVTPTDSCEPAPECSSLEQEELQALQIEQGESSQNGTVLMEETAYPALEETSSTIEAEEQKIPEDSIYIGTASDDSDIVTLEPPKLEEIGNQEVVIVEEAQSSEDFNMGSSSSSQYTFCQPETVFSSQPSDDESSSDETSNQPSPAFRRRRARKKTVSASESEDRLVAEQETEPSKELSKRQFSSGLNKCVILALVIAISMGFGHFYGTIQIQKRQQLVRKIHEDELNDMKDYLSQCQQEQESFIDYKSLKENLARCWTLTEAEKMSFETQKTNLATENQYLRVSLEKEEKALSSLQEELNKLREQIRILEDKGTSTELVKENQKLKQHLEEEKQKKHSFLSQRETLLTEAKMLKRELERERLVTTALRGELQQLSGSQLHGKSDSPNVYTEKKEIAILRERLTELERKLTFEQQRSDLWERLYVEAKDQNGKQGTDGKKKGGRGSHRAKNKSKETFLGSVKETFDAMKNSTKEFVRHHKEKIKQAKEAVKENLKKFSDSVKSTFRHFKDTTKNIFDEKGNKRFGATKEAAEKPRTVFSDYLHPQYKAPTENHHNRGPTMQNDGRKEKPVHFKEFRKNTNSKKCSPGHDCRENSHSFRKACSGVFDCAQQESMSLFNTVVNPIRMDEFRQIIQRYMLKELDTFCHWNELDQFINKFFLNGVFIHDQKLFTDFVNDVKDYLRNMKEYEVDNDGVFEKLDEYIYRHFFGHTFSPPYGPRSVYIKPCHYSSL
- binding [9]: no binding
